Source: PubChem BioAssay AID2685 (National Center for Advancing Translational Sciences (NCATS), 2010)
Out of some 320,000 compounds screened, about 2,100 (0.66%) were called active. The shares of active, inactive and inconclusive entries below differ from those in the screen. The call rests on the fitted dose curve; in most records, active means well fitted inhibition curve with a large enough effect in the signal ratio, with a control signal flat (not every such curve was filed as active); inconclusive means small, poorly fitted or top-dose-only effect, or effect the other way, or a change in a side signal; inactive means flat fitted curve, though single readings scatter; the % refers to the signal ratio. Potencies beside an inconclusive call are fits to weak or partial responses and may not hold up.

Assay: qHTS Assay for Lipid Storage Modulators in Drosophila S3 Cells
Details: BODIPY lipid droplet fluorescence, 18-24 h, cells fed with added oleic acid; lipid storage change, negative = inhibition: at 46.1 µM (top of the series) unless noted
Outline: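 Drosophila S3 cells loaded with oleic acid (400 uM, as added) and compounds at several concentrations; lipid droplets imaged by 488-nm laser-scanning cytometry, 500–530 nm intensity and object ratio to cell channel. Percent activity normalized to 20 uM Triacsin C.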
On the % scale 0 is the no-effect control and ±100 the full control effect; potency means the concentration at half of the fitted maximal effect.

Lipid storage change, negative = inhibition, inconclusive:
COC(=O)c1ccc([C@H]2C=C(C(=O)O)O[C@@H](OCc3ccc(CO)cc3)C2)cc1 24.7%, O=C(NCCCn1ccnc1)c1cn(-c2ccccc2)nc1-c1ccccc1 22.1%, CC(C)CC(C(=O)Nc1ccc2c(c1)OCCO2)N1C(=O)c2ccccc2C1=O (stereo not given) -59.7%, O=C(NCCO)c1nc(C(=O)c2ccc(Cl)cc2)c2ccccc2n1 -84.7%, COc1ccc(S(=O)(=O)Nc2ccccc2C(F)(F)F)cc1 -59.5%, CNCCCOc1ccc(C)cc1OC 11.5%, Cc1ccc(SCCNC(=O)c2ccccc2F)cc1 18%, CC(C)n1c(SCC(=O)Nc2ccccc2N2CCCCC2)nc2c1c(=O)n(C)c(=O)n2C 24.5%, Cc1ccc(C(=O)Nc2ccc(S(=O)(=O)NC3=NCCCCC3)cc2)c(C)c1, O=C(/C=C/c1ccccc1)c1ccc(NC2=NCCCS2)cc1 10.8%, Cc1ccn(CCNC(=O)C2CCC(=O)N(Cc3ccc(Cl)cc3)C2)n1 (stereo not given) -16.8%

Potency, inconclusive:
O=C1/C(=C\c2ccc(O)cc2)SC(=S)N1/N=C/c1ccc(O)cc1 13 µM [falling, partial curve, poor fit], Cc1cc(C)n2nc(SCC(=O)c3ccc[nH]3)nc2n1 5.8 µM [activator, partial curve], CCc1ccc(Nc2nnc(SCC(=O)Nc3sccc3C(N)=O)s2)cc1 23.1 µM [activator, partial curve], Cc1ccc(/C=C2/SC(=S)N(CCC(=O)N3CCOCC3)C2=O)cc1 20.6 µM [activator, single point], C=CCN1/C(=C2/SC(=S)N(C)C2=O)Sc2ccccc21 0.82 µM [falling, full curve, poor fit], COc1ccc(NC(=O)CN(C)C(=O)c2oc3c(ccc4ccccc43)c2C)cc1 0.103 µM [activator, full curve, poor fit], CN(C)C(=O)c1c(-c2ccccc2)oc2ccc(O)cc12 3.66 µM [activator, full curve], CCN(CC(=O)Nc1ccc2c(c1)OCO2)CC(=O)Nc1ccccc1C(F)(F)F 1.3 µM [activator, partial curve], COc1ccc(NC(=O)Cc2nc3ccccc3[nH]2)cc1 6.51 µM [activator, partial curve]
